Source: US20180273573A1, “INHIBITORS OF MENAQUINONE BIOSYNTHESIS” (Memorial Sloan-Kettering Cancer Center, priority 2015, published 2018)
At least one compound was matched to its structure with a doubt left.

Chains of the proteins cited; added tags and fusions are not shown. Lines headed by an entry give the natural chain unless they say otherwise; changes in a name come on top.
UniProt P37353: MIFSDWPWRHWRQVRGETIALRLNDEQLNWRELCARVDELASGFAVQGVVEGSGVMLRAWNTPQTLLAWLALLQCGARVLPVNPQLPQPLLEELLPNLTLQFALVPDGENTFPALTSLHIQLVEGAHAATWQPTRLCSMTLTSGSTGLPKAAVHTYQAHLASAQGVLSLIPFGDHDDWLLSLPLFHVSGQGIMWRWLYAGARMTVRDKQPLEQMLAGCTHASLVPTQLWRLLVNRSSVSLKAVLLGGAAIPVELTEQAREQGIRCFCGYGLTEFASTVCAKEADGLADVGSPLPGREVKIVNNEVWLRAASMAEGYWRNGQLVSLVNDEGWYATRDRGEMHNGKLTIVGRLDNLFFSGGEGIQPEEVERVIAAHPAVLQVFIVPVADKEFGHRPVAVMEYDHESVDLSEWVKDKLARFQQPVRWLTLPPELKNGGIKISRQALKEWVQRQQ

How the values were obtained:
wild-type ecMenE = wild-type ecMenE (Escherichia coli, UniProt P37353); conditions: ITC unable to quantify binding
E. coli MenE (ecMenE) = E. coli MenE (ecMenE) (Escherichia coli, UniProt P37353); assay: MenE-MenB coupled assay (enzyme inhibition, catalytic parameters); conditions: wild-type ecMenE, substrate OSB

Nc1ncnc2c1ncn2[C@@H]1O[C@H](COS(=O)(=O)NC(=O)CCC2(O)c3ccccc3C(O)C2(F)F)[C@@H](O)[C@H]1O (mixture of isomers) [Compound 109]
change in enthalpy in ITC experiments (wild-type ecMenE): did not show a measurable change in enthalpy

O=C(O)CCC(=O)c1ccccc1C(=O)O [OSB, o-succinylbenzoate, reference compound]
kcat/KM (E. coli MenE (ecMenE)): 767000 ± 330 M⁻¹ s⁻¹
